No constants are given. Whether binding was seen depends on the method and setting. Binding can be weak; no strength is given. Tags and fused reporters may be left off the sequences shown. For some of these results: In cells and extracts the contact can be indirect. Values belong to the molecule of their own block, whether it stands above or below them.
What was measured:
[1] = target: T1, TagRFP-XWnt8 (Xenopus laevis) (UniProt P28026); assay: transplantation assay (diffusion from ectodermal grafts, confocal microscopy); diffusion of EGFP-Noggin4 from a graft into the intercellular space of recipient ectoderm expressing TagRFP-Wnt8, compared with recipients expressing TagRFP-hep; one hour after wound healing
T1 sequence: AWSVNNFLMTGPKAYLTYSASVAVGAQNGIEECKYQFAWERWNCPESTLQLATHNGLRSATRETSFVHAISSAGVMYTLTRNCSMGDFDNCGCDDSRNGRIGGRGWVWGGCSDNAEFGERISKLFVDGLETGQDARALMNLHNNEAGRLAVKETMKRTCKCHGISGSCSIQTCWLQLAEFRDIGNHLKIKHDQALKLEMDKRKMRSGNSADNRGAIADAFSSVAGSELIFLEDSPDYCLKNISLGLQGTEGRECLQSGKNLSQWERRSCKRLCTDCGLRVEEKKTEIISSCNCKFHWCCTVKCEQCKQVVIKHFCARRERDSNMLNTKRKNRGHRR

[2] = target: Myc-Noggin2 (Xenopus laevis); assay: co-IP; Myc-Noggin from conditioned medium of dissociated embryos bound on anti-MYC affinity gel and washed; concentrated conditioned medium with the Flag-tagged protein added, 4 °C overnight, CMFM + IP additives (0.1% NP40, glutathione); eluted with c-MYC peptide, Western blot; only the target purified
[3] = target: Myc-Noggin4 (Xenopus laevis); assay: as above
[4] = target: Myc-Noggin4 (Xenopus laevis); assay: co-IP; crude extracts of mid-gastrula embryos injected at the 2-cell stage with Noggin4 and Wnt8 mRNA, alone or with increasing amounts of Frizzled8 mRNA

binding [1]: binds
Molecule: EGFP-Noggin4 (Xenopus laevis)

binding [2]: binds
B1: Flag-BMP4 (ligand, UniProt P30885 288-401)
chain: SPKQQRPRKKNKHCRRHSLYVDFSDVGWNDWIVAPPGYQAFYCHGDCPFPLADHLNSTNHAIVQTLVNSVNSSIPKACCVPTELSAISMLYLDEYDKVVLKNYQEMVVEGCGCR

binding [3]: binds | binding [4]: binds
B2: Flag-Wnt8 (ligand, UniProt P28026 23-358)
chain: AWSVNNFLMTGPKAYLTYSASVAVGAQNGIEECKYQFAWERWNCPESTLQLATHNGLRSATRETSFVHAISSAGVMYTLTRNCSMGDFDNCGCDDSRNGRIGGRGWVWGGCSDNAEFGERISKLFVDGLETGQDARALMNLHNNEAGRLAVKETMKRTCKCHGISGSCSIQTCWLQLAEFRDIGNHLKIKHDQALKLEMDKRKMRSGNSADNRGAIADAFSSVAGSELIFLEDSPDYCLKNISLGLQGTEGRECLQSGKNLSQWERRSCKRLCTDCGLRVEEKKTEIISSCNCKFHWCCTVKCEQCKQVVIKHFCARRERDSNMLNTKRKNRGHRR
